Assay [1] concerns the target SIGLEC12-FL–FLAG (transfected into 293T cells) (human) (UniProt Q96PQ1). Nature of the assay: co-IP; 293T cells cotransfected with SIGLEC12-FL–FLAG and TMPRSS4–HA (plasmids 1:1) for 24 h; anti-FLAG immunoprecipitation; immunoblot. For orientation: A western blot detects proteins with antibodies after separation by electrophoresis.
Assay [2] concerns the target SIGLEC12–FLAG (HT-29-SIGLEC12-KO-SIGLEC12–FLAG stable cell line) (human) (UniProt Q96PQ1). Nature of the assay: co-IP; HT-29-SIGLEC12-KO-SIGLEC12–FLAG stable cells treated with TSE (indicated times or 4 h), with or without NSA (2 μM) cotreatment; SIGLEC12–FLAG immunoprecipitated on anti-FLAG beads (eluted with FLAG peptide in Fig. 3h); immunoblot.
The target in assay [3] is SIGLEC12 (sialic-acid-binding Ig-like lectin 12) (human (endogenous in HT-29)) (UniProt Q96PQ1). The assay is described as follows: co-IP; HT-29 cells treated with TSE for the indicated times; endogenous proteins; lysate incubated with specific primary antibody overnight at 4 °C, then with protein A/G-magnetic beads for 4 h at 4 °C; IgG control antibody lane; immunoblot.
In assay [4] the target is SIGLEC12–FLAG (transfected into HeLa-RIPK3–HA cells) (human) (UniProt Q96PQ1). Nature of the assay: co-IP; HeLa-RIPK3–HA cells transfected with SIGLEC12–FLAG for 16 h and treated with TSE for the indicated times; immunoprecipitation and immunoblot.

The chains behind the UniProt entries cited, without tags or fusion partners. Residues count along the entry.
UniProt Q96PQ1, residues 19-595: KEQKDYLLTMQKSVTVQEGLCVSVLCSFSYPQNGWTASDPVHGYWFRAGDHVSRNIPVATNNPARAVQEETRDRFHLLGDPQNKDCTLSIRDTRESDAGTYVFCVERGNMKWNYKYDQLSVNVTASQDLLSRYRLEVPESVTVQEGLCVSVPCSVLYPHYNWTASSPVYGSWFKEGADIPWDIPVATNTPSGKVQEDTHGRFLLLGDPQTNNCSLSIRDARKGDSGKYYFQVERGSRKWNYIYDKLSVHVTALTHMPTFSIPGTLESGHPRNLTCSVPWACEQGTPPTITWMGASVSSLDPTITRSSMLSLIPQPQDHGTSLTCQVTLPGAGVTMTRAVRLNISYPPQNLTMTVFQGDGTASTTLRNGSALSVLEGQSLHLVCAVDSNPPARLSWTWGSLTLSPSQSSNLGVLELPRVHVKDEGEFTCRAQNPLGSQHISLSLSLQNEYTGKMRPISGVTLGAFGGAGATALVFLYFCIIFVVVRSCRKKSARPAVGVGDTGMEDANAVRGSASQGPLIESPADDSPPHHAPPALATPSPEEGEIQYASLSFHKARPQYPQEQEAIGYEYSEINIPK
UniProt Q9NRS4: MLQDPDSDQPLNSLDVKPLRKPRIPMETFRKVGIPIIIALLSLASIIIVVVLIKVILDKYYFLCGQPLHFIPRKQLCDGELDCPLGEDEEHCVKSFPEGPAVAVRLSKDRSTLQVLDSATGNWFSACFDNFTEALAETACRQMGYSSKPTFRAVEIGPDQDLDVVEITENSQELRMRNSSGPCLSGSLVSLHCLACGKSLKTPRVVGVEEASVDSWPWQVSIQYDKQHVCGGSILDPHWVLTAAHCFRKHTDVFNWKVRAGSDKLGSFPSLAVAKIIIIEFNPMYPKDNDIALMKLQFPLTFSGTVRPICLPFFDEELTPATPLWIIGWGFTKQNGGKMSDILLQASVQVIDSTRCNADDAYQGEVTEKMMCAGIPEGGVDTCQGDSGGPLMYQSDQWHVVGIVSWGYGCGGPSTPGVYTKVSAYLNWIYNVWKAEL

No constants are given. Whether binding was seen depends on the method and setting. In cells and extracts the contact can be indirect. Some results given as binding are weak or reduced against the parent protein; the word gives no strength. For some of these results: Sequences can lack the tags named with a protein.

For the molecule “TMPRSS4–HA (from UniProt Q9NRS4 1-437) (enzyme)”, the binding result in assay [1] is “binds”.

B1: MLKL (protein, UniProt Q8NB16 1-471)
chain: MENLKHIITLGQVIHKRCEEMKYCKKQCRRLGHRVLGLIKPLEMLQDQGKRSVPSEKLTTAMNRFKAALEEANGEIEKFSNRSNICRFLTASQDKILFKDVNRKLSDVWKELSLLLQVEQRMPVSPISQGASWAQEDQQDADEDRRAFQMLRRDNEKIEASLRRLEINMKEIKETLRQYLPPKCMQEIPQEQIKEIKKEQLSGSPWILLRENEVSTLYKGEYHRAPVAIKVFKKLQAGSIAIVRQTFNKEIKTMKKFESPNILRIFGICIDETVTPPQFSIVMEYCELGTLRELLDREKDLTLGKRMVLVLGAARGLYRLHHSEAPELHGKIRSSNFLVTQGYQVKLAGFELRKTQTSMSLGTTREKTDRVKSTAYLSPQELEDVFYQYDVKSEIYSFGIVLWEIATGDIPFQGCNSEKIRKLVAVKRQQEPLGEDCPSELREIIDECRAHDPSVRPSVDEILKKLSTFSK
Turning to B1, the binding result in assay [2] and in assay [3] was “binds” each time.

B2: MLKL (in HeLa-RIPK3–HA cells) (protein, UniProt Q8NB16 1-471)
chain: MENLKHIITLGQVIHKRCEEMKYCKKQCRRLGHRVLGLIKPLEMLQDQGKRSVPSEKLTTAMNRFKAALEEANGEIEKFSNRSNICRFLTASQDKILFKDVNRKLSDVWKELSLLLQVEQRMPVSPISQGASWAQEDQQDADEDRRAFQMLRRDNEKIEASLRRLEINMKEIKETLRQYLPPKCMQEIPQEQIKEIKKEQLSGSPWILLRENEVSTLYKGEYHRAPVAIKVFKKLQAGSIAIVRQTFNKEIKTMKKFESPNILRIFGICIDETVTPPQFSIVMEYCELGTLRELLDREKDLTLGKRMVLVLGAARGLYRLHHSEAPELHGKIRSSNFLVTQGYQVKLAGFELRKTQTSMSLGTTREKTDRVKSTAYLSPQELEDVFYQYDVKSEIYSFGIVLWEIATGDIPFQGCNSEKIRKLVAVKRQQEPLGEDCPSELREIIDECRAHDPSVRPSVDEILKKLSTFSK
Consider B2, for which the binding entry in assay [4] is “binds”.
